## Library screening results

Data taken from ChEMBL document CHEMBL3988442, “University of Dundee, Small-Polar-MMV Screening Library” (2021).

Mtb growth Cornell: 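Whole-cell assay for inhibitors of Mycobacterium tuberculosis growth, labelled Cornell in the record; the read-out is not stated. The concentration is filed as 10 mM, unlikely as a test dose, so the dose is not known. The record gives no direction; compounds strong in two other growth screens of this library score well above the rest, so higher reads as stronger inhibition. Size under these conditions: about 53,000 compounds, about 900 of them at 50% or above in at least one test.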
Mtb heat-shock: 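Assay on Mycobacterium tuberculosis, filed only as a heat shock assay from Cornell; the read-out is not stated. The concentration is filed as 10 mM, unlikely as a test dose, so the dose is not known. Higher reads as stronger inhibition (inferred: compounds with an IC50 in retests scored well above the rest). Size under these conditions: about 69,000 compounds, about 930 of them at 50% or above in at least one test.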

Values are the deposited “Percent Effect”, in %. The record does not define 0% and 100%; most values in the screen are far below 50% and negative numbers occur (in some assays of this library far below -100). Compounds were drawn at random from those tested, without regard to their results. A dash means the value is not listed here; it may have been measured.

| structure | Mtb growth Cornell | Mtb heat-shock |
|---|---|---|
| `Cc1ccc(CN2CCc3c(COCC4CC4)nn(C)c3C2)s1.O=C(O)C(F)(F)F` | -8.378 | -29.84 |
| `c1ccc2c(N3CCSCC3)cnnc2c1` | - | -33.11 |
| `CC(=O)c1cccc(OCC(=O)NS(=O)(=O)c2cccs2)c1` | - | -8.671 |
| `O=C(O)C(F)(F)F.[H][C@@]12OCCN(C(=O)c3cscn3)[C@@]1([H])CC[C@@H]2Oc1ccccn1` | 17.71 | 1.282 |
| `Cn1nc(CN2CCCCC2)c2c1CN(C(=O)c1ccoc1)C2` | - | 9.895 |
| `[H][C@@]12CCN(C(=O)c3cnccn3)C[C@@]1([H])O[C@@H](C)C2` | -20.65 | -27.84 |
| `NC(=O)CCNC(=O)Cc1cccc(I)c1` | -34.79 | -21.76 |
| `[H][C@]12CNC[C@@]1(C(=O)N(C)Cc1cnc(NC)nc1)CN(C(=O)C1CC1)C2` | - | -5.857 |
| `O=C(NCCNCC1CNc2ccnn2C1)c1ccc(F)cc1` (configuration not stated) | - | 22.72 |
| `O=C(NCCC(O)c1ccoc1)Nc1cccs1` (configuration not stated) | 106.1 | 3.76 |
| `CCOc1ccccc1OCCN(C)Cc1ncnn1CC` | 43.18 | -3.365 |
| `CC(=O)c1cnc(NCC2OCCc3ccccc32)nc1C` (configuration not stated) | -13 | 9.714 |
| `COc1ccccc1-c1cc(C(=O)N2CCCC2)c2cnn(C)c2n1` | - | 0.6506 |
| `CCOc1ccc(OCCN2CCC(N3CCNC3=O)CC2)cc1` | - | 0.2075 |
| `O=C(Oc1ccccc1)N1CCC(CNS(=O)(=O)c2cccnc2)CC1` | -5.451 | -17.56 |
| `Cc1nc(CNCc2ccc(OC34CCCN(CC3)C4)cc2)n[nH]1` (configuration not stated) | 13.6 | 1.409 |
| `OC(CN1CCCCCCC1)c1ccc(OC(F)(F)F)cc1` (configuration not stated) | - | -25.8 |
| `CC1c2ncc(Cn3cncn3)n2CCN1C(=O)Cc1cccs1` (configuration not stated) | -21.82 | -6.871 |
| `CNc1nc(N2CCN(C3CCCCC3)C(CCO)C2)nc2c1CCC2` (configuration not stated) | -16 | -19.29 |
| `CC(=O)NCC(=O)N1CCc2c(CNc3ncccn3)cncc2C1.Cl` | 16.86 | 2.144 |
| `Cc1ccc(C)c(C(=O)NCC(c2cccn2C)N2CCCCCC2)c1` (configuration not stated) | - | -12.06 |
| `O=c1[nH]c2ncccc2n1C1CCCC1` | 5.506 | 0.8007 |
| `CC(=O)NC[C@]1(O)CCN(C(=O)c2ccc3c(c2)CCC3)C[C@H]1O` | - | -11.87 |
| `CC(CCc1ccccc1)NC(=O)Nc1cnn(CC(N)=O)c1` (configuration not stated) | - | 8.918 |
| `CCc1nccn1-c1cncc(C2CCCN2Cc2ccc(F)cc2)n1` (configuration not stated) | - | 9.774 |
| `COc1cc(-c2noc(C(CC(C)C)N3CCCCC3=O)n2)ccn1` (configuration not stated) | -57.38 | 11.83 |
| `Cc1ccsc1CCNC(C)C(=O)NC1CCCC1` (configuration not stated) | 17.52 | 13.37 |
| `[H][C@]12CCCCN1CCC[C@H]2CCC(=O)N1CCC(c2nnc[nH]2)CC1` | -6.193 | 11.32 |
| `Cc1noc(C)c1-c1cncc(C2CCCN2Cc2ccncc2)n1` (configuration not stated) | 5.922 | -0.139 |
| `CCC[C@@H]1CN(Cc2ccccc2-c2ccco2)C[C@H]1NC(C)=O` | -27.52 | -16.34 |
| `Cc1cc(=O)n2ncnc2n1CC(O)COCc1ccccc1Cl` (configuration not stated) | 13.76 | 7.048 |
| `CC(=O)N1CCC(c2nnc3ccc(C(=O)NC(C)C)cn23)C1` (configuration not stated) | -23.24 | -18.07 |
| `COC1CCCN(C(=O)NCC(F)F)C1` (configuration not stated) | -2.771 | 11.3 |
| `Cc1cc2nc(C(C)C)cc(N3CCN(c4ccc(O)cc4)CC3)n2n1` | 103.7 | 29.24 |
| `COc1cccc(COc2nc(C(C)C)no2)c1` | -35.78 | -10.15 |
| `COC(=O)CNC(=O)CCc1cc(Cl)cs1` | 5.167 | 17.71 |
| `O=C(O)C(F)(F)F.[H][C@@]12CN(C3CCOCC3)C[C@@]1([H])N(Cc1cccc(F)c1)C(=O)CO2` | 22.98 | -2.723 |
| `Nc1nc(CC(=O)N2CCCC(CCc3cccc(F)c3)C2)cc(=O)[nH]1` (configuration not stated) | 25.06 | 12.64 |
| `Cc1ccc(C)c2c(O)cc(CNCc3ccc(S(N)(=O)=O)cc3)nc12` | 23.62 | 10.61 |
| `COCc1ccc(C(=O)N2CCN(CCS(C)(=O)=O)CC2)cc1` | 12.97 | 12.85 |
| `COCCC(=O)Nc1ccnc(Oc2ccccc2)c1` | 13.35 | 7.482 |
| `O=C(Cc1ccsc1)N1CCCC(CNS(=O)(=O)Cc2ccccc2)C1` (configuration not stated) | 10.59 | -0.4372 |
| `COCCNC(=O)N1CCN(C(=O)c2nsc3ccc(C)cc23)CC1` | 10.39 | -16.18 |
| `N#Cc1ccc(F)c(CSCCN2CCOCC2)c1` | - | 4.942 |
| `O=C(O)C(F)(F)F.O=C1Nc2ccccc2C12CCN(Cc1cccs1)CC2` | 50.44 | -5.404 |
| `CCCOc1ccc2c(c1)OCC(CNC1CCc3ncnn3C1)=C2` (configuration not stated) | -0.684 | -1.315 |
| `O=C(O)C(F)(F)F.[H][C@]12CCN(C(=O)c3cnccn3)C[C@@]1([H])[C@H](CN1CCCC1)OC2` | 20.76 | -20.21 |
| `CN(Cc1nc(CS(C)(=O)=O)no1)c1ccccc1` | 14.22 | -6.192 |
| `O=C(CCc1nnc(-c2ccccc2)o1)N1CCN(CC2CC2)CC1` | - | -7.652 |
| `CCC(CC)C(=O)N1CCC2(C1)CN(c1ccccc1)C(=O)CN2C.O=C(O)C(F)(F)F` (configuration not stated) | -1.502 | -1.075 |
| `Nc1ccnc(-c2cc(NC3CCNCC3)nc3[nH]ccc23)c1` | 11.63 | 14.8 |
| `Cc1cc2ccccc2n1CCC(=O)NCCCc1nnc(N)s1` | -13.4 | -30.18 |
| `CCc1nn(C)c(Cl)c1CN1C[C@@H](NC(=O)N(C)C)[C@H](C(C)C)C1` | 37.93 | 10.12 |
| `CC(=O)Nc1cccc2c1ccn2CC(=O)NC(C)C` | -7.424 | -2.006 |
| `O=C(CN1CCCS(=O)(=O)CC1)NCc1ccccc1F` | -22.64 | 1.586 |
| `CSc1ncc(C(=O)N(C)C(C)Cc2ccccn2)cn1` (configuration not stated) | 19.47 | 12.53 |
| `O=C(CC1CN(Cc2ccccc2)CCO1)Nc1ccsc1` (configuration not stated) | 20.45 | -32.78 |
| `COCC1CCN(C(=O)c2cn(Cc3cccc(C(F)(F)F)c3)nn2)C1` (configuration not stated) | 30.37 | -5.748 |
| `CCOC(=O)CC(C)Nc1nc(C2CCCC2)nc2c1cnn2C` (configuration not stated) | 17.93 | -38.48 |
| `[H][C@@]12CN(C3CCOCC3)C(=O)N1CCN(S(C)(=O)=O)C2` | -24.74 | -37.85 |
| `O=C(O)C(F)(F)F.OCCN1CCOC2(CCCN(c3cccc(F)c3)C2)C1` (configuration not stated) | - | 5.961 |
| `CCN1CCCC(c2cc(Nc3cnccn3)nc(C)n2)C1` (configuration not stated) | -4.368 | -7.907 |
| `Cc1cc(N(C)Cc2snnc2C)nc(-c2cccnc2)n1` | 15.45 | 2.134 |